Results reported in PMC9584609.
No constants are given. Whether binding was seen depends on the method and setting.

Target: barttin-mVenus-PAmCherry (human) (UniProt Q8WZ55)
Assay: native gel or EMSA; high-resolution clear native electrophoresis (hrCNE); lysate of transfected HEK293T cells in 0.1 M sodium phosphate with 0.5% digitonin or 20 mM DDM; 4-14% acrylamide gradient gel run at 4 °C; mVenus fluorescence scanned; VGLUTs and sialin with and without PNGaseF

B1: barttin-mVenus-PAmCherry (protein, UniProt Q8WZ55 1-320)
chain: MADEKTFRIGFIVLGLFLLALGTFLMSHDRPQVYGTFYAMGSVMVIGGIIWSMCQCYPKITFVPADSDFQGILSPKAMGLLENGLAAEMKSPSPQPPYVRLWEEAAYDQSLPDFSHIQMKVMSYSEDHRSLLAPEMGQPKLGTSDGGEGGPGDVQAWMEAAVVIHKGSDESEGERRLTQSWPGPLACPQGPAPLASFQDDLDMDSSEGSSPNASPHDREEACSPQQEPQGCRCPLDRFQDFALIDAPTLEDEPQEGQQWEIALPNNWQRYPRTKVEEKEASDTGGEEPEKEEEDLYYGLPDGAGDLLPDKELGFEPDTQG
**Q.** With B1 as the binder, how does the binding read?
**A.** no binding
